± gives the standard deviation. This is a selection; strong and weak results do not stand in their true shares. Many entries were measured with a wide error. Some of the results follow.
What was measured:
[1] = test system: MILI (PIWIL2) piRISC loaded with L1MC piRNA (26 nt); test: pre-steady-state target cleavage rate (min^-1); higher = faster piRNA-guided slicing of the target; conditions: guide: L1MC piRNA 5'p-UAACUAAAUACUAUGCAAGCUGUAGG
In short: (§1)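 In HEPES–potassium acetate buffer at 33 °C, […] transcribed, DNA-blocked target RNA library was mixed with 1 nM active affinity-purified piRISC carrying one synthetic guide, with or without 500 nM GTSF1 partner protein, for 0–8 or 0–960 min. Uncleaved targets were sequenced and normalised to depth and to weakly complementary targets; three trials were pooled and k3 was capped at 0.0001 min^-1. The pre-steady-state cleavage rate followed from a burst-and-steady-state fit.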

[2] = test system: MIWI (PIWIL1) piRISC loaded with L1MC piRNA (30 nt); test: as above; conditions: guide: L1MC piRNA 5'p-UAACUAAAUACUAUGCAAGCUGUAGGUCCU
In short: as §1

[3] = test system: EfPiwi piRISC loaded with L1MC piRNA (26 nt); test: pre-steady-state target cleavage rate (min^-1); guide: L1MC piRNA 5'p-UAACUAAAUACUAUGCAAGCUGUAGG; MIWI and MILI are mouse PIWI proteins and EfPiwi is from a freshwater sponge; tags in brackets are library labels; higher = faster piRNA-guided slicing of the target
In short: as §1

[4] = auxiliary factor: 500 nM mouse GTSF1
[5] = auxiliary factor: none (no GTSF1)
[6] = auxiliary factor: 500 nM Ephydatia muelleri Gtsf1
[7] = auxiliary factor: none (no Gtsf1)

Row | Sequence | pre-steady-state target cleavage rate [1, 4] | pre-steady-state target cleavage rate [1, 5] | pre-steady-state target cleavage rate [2, 5] | pre-steady-state target cleavage rate [3, 6] | pre-steady-state target cleavage rate [3, 7] | pre-steady-state target cleavage rate [2, 4]
1 | UCCUGGAUGUCGAAGCAUAGUAUUUCGUUA | 0.00855 ± 0.0046 | 0.00116 ± 0.0052 | 0.00127 ± 0.0044 | 0.000398 ± 0.0089 |  | 
2 | UCCUCCUAGAGGUUGCAUAGUAUUUAGUUA | 0.205 ± 0.011 | 0.00716 ± 0.0022 |  | 0.0153 ± 0.0029 |  | 
3 | UCCUGGUAGAGCUUGCAUAGUAUUUAGAAA | 0.128 ± 0.028 | 0.00163 ± 0.0042 |  | 0.00392 ± 0.0022 |  | 
4 | UCCUGGAUGAGCUUGCAUACUUUUUAGUUA | 0.00156 ± 0.0067 | 0.00199 ± 0.0035 |  | 0.000801 ± 0.0093 |  | 
5 | UCCUGGAUGAGCUUGCAUAGAAUUUAGUAA | 0.0264 ± 0.011 | 0.00131 ± 0.0041 |  | 0.00272 ± 0.0027 |  | 
6 | UCCUCCUAGAGCUUGCAUAGUAUUUAGAUA | 0.123 ± 0.025 | 0.00123 ± 0.0051 |  | 0.0043 ± 0.0018 |  | 
7 | UCCUGGAUGUGCUUGCAUAGUAUAUUAGUUA | 0.111 ± 0.016 | 0.00381 ± 0.0027 |  |  | 0.00389 ± 0.0046 | 
8 | UCCUCCUACAGCUUGCAAACUAUUUAGUUA | 0.0393 ± 0.0078 | 0.00226 ± 0.0033 |  |  | 0.00112 ± 0.0063 | 
9 | UCCUGGAUGUCCUUGGAUAGUAUUUAGAUA | 0.129 ± 0.035 | 0.00107 ± 0.0068 | 0.000468 ± 0.015 | 0.000686 ± 0.0092 |  | 
10 | UCCUGCUUCAGCUUGCAUAGUAUUUAGUAA | 0.224 ± 0.025 | 0.00397 ± 0.002 |  | 0.00811 ± 0.0033 |  | 
11 | UCCUGCUACAGGUUGCAUAGUAUUUAGUUA | 0.246 ± 0.011 | 0.013 ± 0.0028 |  |  | 0.000964 ± 0.0087 | 
12 | UCCUCCUAGACCUUGCAUAGUAUUUAGUUA | 0.237 ± 0.024 | 0.00751 ± 0.0025 |  | 0.141 ± 0.041 |  | 
13 | UCCUCCUUCAGCUUGGAUAGUAUUUAGUUA | 0.242 ± 0.015 | 0.0086 ± 0.0023 |  | 0.0562 ± 0.013 |  | 
14 | UCCUGCUACAGCUUGCAUAGUAUUUAGUGA | 0.193 ± 0.033 | 0.00299 ± 0.0027 |  | 0.00567 ± 0.0019 |  | 
15 | UCCUGGAUGUCGUUGCAAAGAAUUUAGUUA | 0.00111 ± 0.0091 | 0.00062 ± 0.0069 |  | 0.00066 ± 0.0098 |  | 
16 | UCCUCCUUCAGCUUGCAUAGUAUUUAGAUA | 0.157 ± 0.022 | 0.00242 ± 0.0024 |  | 0.00476 ± 0.0027 |  | 
17 | UCCUGGAUGUCGUUGCAUAGUUUUUACUUA | 0.000631 ± 0.013 | 0.000282 ± 0.025 |  |  | 0.000123 ± 0.063 | 
18 | UCCUCCUACAGCUUGCAUAGUAUUUAGAUUA | 0.122 ± 0.022 | 0.00237 ± 0.0032 |  | 0.0103 ± 0.0044 |  | 
19 | UCCUGCUUCAGCUUGCAUAGUAUAUAGUUA | 0.277 ± 0.025 | 0.00438 ± 0.002 |  | 0.00887 ± 0.0035 |  | 
20 | UCCUGGAUGUCCUUGCAUAGUAUUUAGGUA | 0.0702 ± 0.017 | 0.00143 ± 0.0049 |  | 0.00431 ± 0.0026 |  | 
21 | UCCUGGAUGAGCUUGCAAAGUUUUUAGUUA | 0.00724 ± 0.004 | 0.00276 ± 0.0036 |  | 0.000504 ± 0.016 |  | 
22 | UCCUGGAACAGCUUGCAUAGUAUUUAGUGUA | 0.231 ± 0.018 | 0.00523 ± 0.0026 |  | 0.00557 ± 0.0021 |  | 
23 | UCCUGGAUGUGCUUGCAUAGUAUUUGGUUA | 0.131 ± 0.013 | 0.01 ± 0.0034 |  | 0.00579 ± 0.003 |  | 
24 | UCCUGGAUGAGCUUGCAUAGUAUAUACUUA | 0.00262 ± 0.0058 | 0.00092 ± 0.0076 |  | 0.000509 ± 0.01 |  | 
25 | UCCUGGAUCAGCUUGCAUAGUAUUAAGAUA | 0.0716 ± 0.025 | 0.00179 ± 0.0034 |  | 0.006 ± 0.0032 |  | 
26 | UCCUGGAUGAGCUGGCAUAGUAUUUAGUUA | 0.185 ± 0.016 | 0.0101 ± 0.0034 |  | 0.0103 ± 0.0035 |  | 

Row | Sequence | pre-steady-state target cleavage rate [1, 4] | pre-steady-state target cleavage rate [1, 5] | pre-steady-state target cleavage rate [2, 5] | pre-steady-state target cleavage rate [3, 6] | pre-steady-state target cleavage rate [3, 7] | pre-steady-state target cleavage rate [2, 4]
27 | UCCUGGAUGUCGAACGAAUAGUAUUUAGUUA | 0.000589 ± 0.0077 | < 0.0001 |  | 0.00022 ± 0.011 |  | 
28 | UCCUGGAUGUCGUUGCAUAAGUAUUUAGUUA | 0.00128 ± 0.0075 | 0.00111 ± 0.0075 |  | 0.000254 ± 0.021 |  | 0.000432 ± 0.019
29 | UCCUGGAUGUCGAUGCAUAGUAUUUACUUA | 0.0276 ± 0.01 | 0.00114 ± 0.0047 |  | 0.00125 ± 0.0059 |  | 
30 | UCCUGGAACACCUUGCAUAGUAUUUACUUA | 0.0546 ± 0.018 | 0.00241 ± 0.0036 |  | 0.00139 ± 0.0043 |  | 
31 | UCCUGCUACAGCUAGCAUAGUAUUAAGUUA | 0.3 ± 0.032 | 0.00271 ± 0.0036 |  | 0.00662 ± 0.0026 |  | 
32 | UCCUGGAUGAGCUUACAUAGUAUUUAGUUA | 0.153 ± 0.019 | 0.00591 ± 0.0023 |  | 0.00581 ± 0.0024 |  | 
33 | UCCUGGAUGAGCUAGCAUAGUAUUUUGUUA | 0.159 ± 0.036 | 0.00273 ± 0.0031 |  | 0.00327 ± 0.003 |  | 
34 | UCCUGGAUGUCGAUGCAUAGUAUUUUCAUA | 0.00311 ± 0.0056 | 0.000256 ± 0.021 |  | 0.000606 ± 0.008 |  | 
35 | UCCUGGAUGUCCUUGCAUAGUUUAUAGUUA | 0.0111 ± 0.006 | 0.00247 ± 0.0026 | 0.00171 ± 0.0034 | 0.000967 ± 0.0084 |  | 
36 | UCCUCCUACAGGUAGCAUAGUAUUUAGUUA | 0.273 ± 0.013 | 0.00904 ± 0.0021 |  | 0.0265 ± 0.006 |  | 
37 | UCCUGGAUGUCCUUGCAUAGUAUUUAGUA | 0.0747 ± 0.012 | 0.00356 ± 0.0024 |  | 0.00759 ± 0.0039 |  | 
38 | UCCUGCUACAGCUGUGCAUAGUAUUUAGUUA | 0.263 ± 0.025 | 0.0081 ± 0.0032 |  |  | 0.000576 ± 0.0092 | 
39 | UCCUGGAACAGCUUCGAUAGUAUUUAGAAA | 0.0923 ± 0.021 | 0.000613 ± 0.0083 | 0.000419 ± 0.0077 | 0.00315 ± 0.0039 |  | 
40 | UCCUCCUACAGCUUGCUAUGUAUUUUCAAA | 0.006 ± 0.0037 | 0.000669 ± 0.006 | 0.000536 ± 0.008 | 0.000897 ± 0.0078 |  | 
41 | UCCUGCUAGAGCUUGCAUAGUAUUUACAAA | 0.146 ± 0.039 | 0.00105 ± 0.0068 | 0.00248 ± 0.003 |  | 0.000173 ± 0.028 | 
42 | UCCUGCUACAGCUUGCAUAGAUUUUACAAA | 0.00852 ± 0.0044 | 0.000258 ± 0.0099 | 0.000246 ± 0.017 |  | 0.000327 ± 0.018 | 
43 | UCCUGGAAGAGCUUCCAUAGUAUUUAGUUA | 0.297 ± 0.085 | 0.00136 ± 0.0042 | 0.00131 ± 0.0046 | 0.00329 ± 0.0011 |  | 
44 | UCCUGGAUGAGCUUCGAUAGUAUUUAGUUA | 0.108 ± 0.013 | 0.0016 ± 0.0048 | 0.00118 ± 0.0044 | 0.000682 ± 0.0048 |  | 
45 | UCCUGGAACAGCUUGCAUAGUAUAUAGAAA | 0.0917 ± 0.026 | 0.00108 ± 0.0056 | 0.00109 ± 0.0049 | 0.00685 ± 0.0044 |  | 
46 | UCCUGGAUGUCGAUGCAUUAGUAUUUAGUUA | 0.00122 ± 0.0086 | 0.000909 ± 0.006 | 0.000773 ± 0.007 | 0.000197 ± 0.014 |  | 
47 | UCCUGGAUGUCGAAGCAUAGUAUUUUGUUA | 0.0221 ± 0.0061 | 0.00241 ± 0.0023 | 0.00087 ± 0.0045 | 0.0012 ± 0.0049 |  | 
48 | UCCUGGAUCUCCUUGCAUAGUAUUUACAAA | 0.0872 ± 0.018 | 0.000768 ± 0.0059 | 0.0013 ± 0.0052 | 0.00164 ± 0.0047 |  | 
49 | UCCUGGAUCAGCUUGCAUAGUAUAUACAAA | 0.0964 ± 0.023 | 0.00134 ± 0.0043 | 0.00184 ± 0.0036 | 0.000755 ± 0.0041 |  | 
50 | UCCUGGAUGAGGUUGCAUACUAUUUAGUUA | 0.0167 ± 0.006 | 0.00194 ± 0.0037 | 0.00126 ± 0.0051 | 0.00096 ± 0.0058 |  | 
51 | UCCUGGAUGUGCUUGCAUUAGUAUUUAGUUA | 0.00201 ± 0.0074 | 0.000858 ± 0.0086 |  | 0.00132 ± 0.0054 |  | 0.00138 ± 0.011

Eleven entries from above, as tab-separated lines.
Row	Sequence	pre-steady-state target cleavage rate [1, 4]	pre-steady-state target cleavage rate [1, 5]	pre-steady-state target cleavage rate [2, 5]	pre-steady-state target cleavage rate [3, 6]	pre-steady-state target cleavage rate [3, 7]	pre-steady-state target cleavage rate [2, 4]
1	UCCUGGAUGUCGAAGCAUAGUAUUUCGUUA	0.00855 ± 0.0046	0.00116 ± 0.0052	0.00127 ± 0.0044	0.000398 ± 0.0089		
2	UCCUCCUAGAGGUUGCAUAGUAUUUAGUUA	0.205 ± 0.011	0.00716 ± 0.0022		0.0153 ± 0.0029		
3	UCCUGGUAGAGCUUGCAUAGUAUUUAGAAA	0.128 ± 0.028	0.00163 ± 0.0042		0.00392 ± 0.0022		
4	UCCUGGAUGAGCUUGCAUACUUUUUAGUUA	0.00156 ± 0.0067	0.00199 ± 0.0035		0.000801 ± 0.0093		
5	UCCUGGAUGAGCUUGCAUAGAAUUUAGUAA	0.0264 ± 0.011	0.00131 ± 0.0041		0.00272 ± 0.0027		
6	UCCUCCUAGAGCUUGCAUAGUAUUUAGAUA	0.123 ± 0.025	0.00123 ± 0.0051		0.0043 ± 0.0018		
7	UCCUGGAUGUGCUUGCAUAGUAUAUUAGUUA	0.111 ± 0.016	0.00381 ± 0.0027			0.00389 ± 0.0046	
8	UCCUCCUACAGCUUGCAAACUAUUUAGUUA	0.0393 ± 0.0078	0.00226 ± 0.0033			0.00112 ± 0.0063	
9	UCCUGGAUGUCCUUGGAUAGUAUUUAGAUA	0.129 ± 0.035	0.00107 ± 0.0068	0.000468 ± 0.015	0.000686 ± 0.0092		
10	UCCUGCUUCAGCUUGCAUAGUAUUUAGUAA	0.224 ± 0.025	0.00397 ± 0.002		0.00811 ± 0.0033		
11	UCCUGCUACAGGUUGCAUAGUAUUUAGUUA	0.246 ± 0.011	0.013 ± 0.0028			0.000964 ± 0.0087	

From the supplement of paper PMC10338343
